Where a name gives a salt, the structure may show the parent alone. Read-outs that look alike come from different tables or passages of the source. Out of some 3,300 compounds screened, about 95 (3%) showed an effect of 50% or more. The list shows a part of the results.

This experiment deals with HCoV-229E. Details: species or system Huh-7; HTS, protection from HCoV-229E induced cell death, luminescent cell viability (CellCounting-Lite 2.0), inhibition rate. Conditions: 24 h post infection, 1 h compound pre-incubation, 10 µM, inhibitor.

In the case of `CC1(C)CC[C@]2(C(=O)O)CC[C@]3(C)C(=CC[C@@H]4[C@@]5(C)C[C@@H](O)[C@H](O)[C@@](C)(CO)[C@@H]5[C@H](O)C[C@]43C)[C@@H]2C1` [Terminolic acid], the “229E Inhibition rate” value was 44.5%. Same read-out and setting: then `O=c1cc(-c2ccc(O)cc2)oc2c([C@@H]3O[C@H](CO)[C@@H](O)[C@H](O)[C@H]3O)c(O)c([C@@H]3OC[C@@H](O)[C@H](O)[C@H]3O)c(O)c12` [Vicenin-1], with 12.3%; and `CC(C)c1ccc2c(c1O)CC[C@H]1C3=C(CC[C@]21C)C(=O)OC3` [Triptophenolide], with 34%. As to `CC(=O)c1ccc(C)cc1` [4'-Methylacetophenone], the “229E Inhibition rate” value turned out to be 8.7%. `C[C@@H](O)CC(=O)O` [(R)-3-Hydroxybutanoic acid]: the “229E Inhibition rate” value (229E Inhibition rate, 24 h) is 12.3%. For the compound `COC(=O)[C@]1(O)C[C@@H](O)[C@@H](O)[C@H](OC(=O)/C=C/c2ccc(O)c(O)c2)C1` [3-O-Caffeoylquinic acid methyl ester], the “229E Inhibition rate” value was 24.2%.

For `Cn1c(N)nc2c(ncn2[C@@H]2O[C@H](CO)[C@@H](O)[C@H]2O)c1=O` [1-Methylguanosine], the “229E Inhibition rate” value is 8.6%. On the same count and under the same terms, to `N[C@H](CS)C(=O)O` [D-Cysteine] belongs 6.6%; to `Nc1nc2c(ncn2[C@@H]2O[C@H](COP(=O)(O)OP(=O)(O)OP(=O)(O)O)[C@@H](O)[C@H]2O)c(=O)[nH]1` [Guanosine 5'-triphosphate (trisodium salt)], 12.4%.

With `O=C(O)c1cc(=O)[nH]c(=O)[nH]1` [Orotic acid], the “229E Inhibition rate” value (229E Inhibition rate, 24 h) is recorded as 18.5%. As for `O=C(O)Cc1cc(O)ccc1O` [Homogentisic acid], the “229E Inhibition rate” value was found to be 10.7%.

`N[C@@H](CS)C(=O)O` [L-Cysteine (hydrochloride)]: for the setting “229E Inhibition rate, 24 h”, the “229E Inhibition rate” value is 8.6%. For `C[C@]1(O)C[C@@H](O)[C@@H]2C=CO[C@@H](O[C@@H]3O[C@H](CO)[C@@H](O)[C@H](O)[C@H]3O)[C@@H]21` [Ajugol], the “229E Inhibition rate” value amounted to 0%. Take `OC[C@H]1O[C@@](CO)(O[C@H]2O[C@H](CO[C@@H]3O[C@H](CO)[C@@H](O)[C@H](O)[C@H]3O)[C@@H](O)[C@H](O)[C@H]2O)[C@@H](O)[C@@H]1O` [Gentianose]: the “229E Inhibition rate” value amounted to 0%. As for `C=C1C(=O)O[C@@H]2/C=C(\C)[C@@H](OC(C)=O)C/C=C(\COC(C)=O)C[C@@H](OC(=O)/C(C)=C/CO)[C@@H]12` [Eupalinolide A], for the setting “229E Inhibition rate, 24 h”, the “229E Inhibition rate” value is 35.1%.

Turning to `NCCCCCCCC(=O)O` [8-Aminooctanoic acid], the “229E Inhibition rate” value came to 10%.

`C=C[C@H]1CN2CC[C@]3(C(=O)Nc4ccccc43)[C@@H]2C[C@@H]1/C(=C\OC)C(=O)OC` [Corynoxeine]: the “229E Inhibition rate” value came to 15.2%.

Turning to `O=C(/C=C/c1ccc(O)c(O)c1)O[C@@H]1[C@H](O)C[C@@](O)(C(=O)O)C[C@H]1OC(=O)/C=C/c1ccc(O)c(O)c1` [4,5-Dicaffeoylquinic acid], the “229E Inhibition rate” value came out at 8.8%. On the same count and under the same terms, then `CC(=O)O[C@H]1C[C@H]2C(=O)O[C@H](c3ccoc3)C[C@@]2(C)[C@@H]2C[C@@H]3C[C@@H](C(=O)O3)[C@@H]12` [8-Epidiosbulbin E acetate], with 10.4%; and `COc1cc(C(C)=O)ccc1O` [Apocynin], with 5.3%. As for `COC(=O)[C@H]1[C@H]2C[C@@H]3c4[nH]c5cc(OC)ccc5c4CCN3C[C@H]2C[C@@H](OC(=O)c2cc(OC)c(OC)c(OC)c2)[C@@H]1OC` [Reserpine], for the setting “229E Inhibition rate, 24 h”, the “229E Inhibition rate” value is recorded as 28%. For `COc1ccc(-c2oc3c(CCC(C)(C)O)c(O[C@@H]4O[C@H](CO)[C@@H](O)[C@H](O)[C@H]4O)cc(O)c3c(=O)c2O)cc1` [Maohuoside A], the “229E Inhibition rate” value worked out at 10.4%. On the same count and under the same terms, then `CC1C(=O)CCC1=O` [2-Methylcyclopentane-1,3-dione], with 19.8%. Same read-out and setting: then `C[C@@H]1O[C@@H](O[C@H]2[C@H](O[C@H]3CC[C@]4(C)[C@H]5CC=C6[C@@H]7CC(C)(C)CC[C@]7(C(=O)O[C@@H]7O[C@H](CO[C@@H]8O[C@H](CO)[C@@H](O[C@@H]9O[C@@H](C)[C@H](O)[C@@H](O)[C@H]9O)[C@H](O)[C@H]8O)[C@@H](O)[C@H](O)[C@H]7O)CC[C@@]6(C)[C@]5(C)CC[C@H]4C3(C)C)OC[C@H](O)[C@@H]2O)[C@H](O)[C@H](O)[C@H]1O` [Hederasaponin B], with 12.8%. With `N[C@@H](Cc1ccc(O)cc1)C(=O)O` [L-Tyrosine], the “229E Inhibition rate” value is listed as 4.6%. The same measure, in the same setting: then `O=c1c(O)cc([C@H]2Oc3cc(O)cc(O)c3C[C@H]2O)cc2c([C@H]3Oc4cc(O)cc(O)c4C[C@H]3O)cc(O)c(O)c12` [Theaflavin], with 10.5%; and `COc1cc([C@H]2OC[C@@H]3[C@@H]2CO[C@H]3c2cc(OC)c(O[C@@H]3O[C@H](CO)[C@@H](O)[C@H](O)[C@H]3O)c(OC)c2)cc(OC)c1O[C@@H]1O[C@H](CO)[C@@H](O)[C@H](O)[C@H]1O` [Eleutheroside E], with 29%. Same read-out and setting: then `CC(C)(C)CC(C)(C)c1ccc(O)c(Cc2ccc(Cl)cc2Cl)c1` [Clofoctol], with 4.5%. For the compound `O=C(/C=C/c1ccc(O)c(O)c1)O[C@@H](C(=O)O)[C@@H](OC(=O)/C=C/c1ccc(O)c(O)c1)C(=O)O` [Chicoric acid], where the note is “229E Inhibition rate, 24 h”, the “229E Inhibition rate” value amounted to 8%. Consider `CCCCCCCCCCCCCCCCCCCCCCCC(=O)O` [Lignoceric acid], for which the “229E Inhibition rate” value is 9.2%.

Take `C[C@H](CC[C@@H](O[C@@H]1O[C@H](CO)[C@@H](O)[C@H](O)[C@H]1O)C(C)(C)O)[C@H]1CC[C@@]2(C)[C@@H]3CC=C4[C@@H](CC[C@H](O)C4(C)C)[C@]3(C)[C@H](O)C[C@]12C` [Mogroside I A1]: the “229E Inhibition rate” value came out at 26.1%. `CC1(C)CC[C@]2(CO)CC[C@]3(C)C(=CC[C@@H]4[C@@]5(C)CC[C@H](O)C(C)(C)[C@@H]5CC[C@]43C)[C@@H]2C1` [Erythrodiol]: the “229E Inhibition rate” value is 18.3%. `C[C@H]1[C@H](C)CC[C@]2(C(=O)O)CC[C@]3(C)C(=CC[C@@H]4[C@@]5(C)C[C@@H](O)[C@H](O)[C@@](C)(CO)[C@@H]5CC[C@]43C)[C@H]12` [Asiatic acid]: the “229E Inhibition rate” value is on record as 10%. The same measure, in the same setting: then `COc1cc2c(c(OC)c1OC)-c1c(cc3c(c1OC)OCO3)[C@H](OC(=O)c1ccccc1)[C@@](C)(O)[C@@H](C)C2` [Gomisin G], with 15.9%.

The values above are taken from publication PMC12431657, “Discovery and mechanistic insights of dibenzoylmethane as a broad spectrum inhibitor of coronavirus” (PLOS Pathogens, 2025).
